Data published in US20090215029.

System: GAL4 (Saccharomyces cerevisiae)
Assay: EMSA
Settings: purified recombinant protein; protein details: Santa Cruz Biotechnology sc-4050

“GATCCAATACGACTCACTATAGCGGAAGACTCTCCTCCGGAGG / GATCCCTCCGGAGGAGAGTCTTCCGCTATAGTGAGTCGTATTG [GAL4 target sequence duplex]”: binds.

The exact form of at least one protein or probe is not confirmed.
